log2 fold change data for 22 targets are collected here from the supplement of paper PMC10849652.

Protein sequences, listed by entry. Tags and fused reporters are not part of them. Lines headed by an entry give the natural chain unless they say otherwise; changes in a name come on top.
UniProt O00754: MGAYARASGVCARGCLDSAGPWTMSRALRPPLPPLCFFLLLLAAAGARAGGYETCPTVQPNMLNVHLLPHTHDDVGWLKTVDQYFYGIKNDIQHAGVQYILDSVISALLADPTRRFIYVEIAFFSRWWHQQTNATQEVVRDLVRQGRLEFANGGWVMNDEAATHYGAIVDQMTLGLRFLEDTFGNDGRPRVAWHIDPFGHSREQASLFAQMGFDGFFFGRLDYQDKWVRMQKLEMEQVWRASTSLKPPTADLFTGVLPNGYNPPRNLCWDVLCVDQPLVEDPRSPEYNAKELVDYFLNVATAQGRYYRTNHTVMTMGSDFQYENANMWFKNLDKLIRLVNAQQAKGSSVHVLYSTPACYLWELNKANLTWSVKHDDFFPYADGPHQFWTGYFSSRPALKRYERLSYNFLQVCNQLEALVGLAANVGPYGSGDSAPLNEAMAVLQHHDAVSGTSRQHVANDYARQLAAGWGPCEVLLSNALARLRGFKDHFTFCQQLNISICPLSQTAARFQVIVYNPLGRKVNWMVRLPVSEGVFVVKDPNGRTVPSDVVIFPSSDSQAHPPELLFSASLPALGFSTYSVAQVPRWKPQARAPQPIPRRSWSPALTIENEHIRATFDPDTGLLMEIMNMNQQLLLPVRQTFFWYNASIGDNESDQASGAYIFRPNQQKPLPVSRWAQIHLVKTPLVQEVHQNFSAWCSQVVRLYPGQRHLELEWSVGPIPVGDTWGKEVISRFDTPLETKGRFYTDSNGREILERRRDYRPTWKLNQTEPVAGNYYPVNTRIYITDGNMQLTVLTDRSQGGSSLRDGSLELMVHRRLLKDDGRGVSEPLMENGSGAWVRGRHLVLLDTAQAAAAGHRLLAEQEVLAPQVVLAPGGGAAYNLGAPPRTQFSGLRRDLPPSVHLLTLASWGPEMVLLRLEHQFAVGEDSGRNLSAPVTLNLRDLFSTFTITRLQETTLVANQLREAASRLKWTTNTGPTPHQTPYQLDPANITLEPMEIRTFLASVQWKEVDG
UniProt Q9NQG1: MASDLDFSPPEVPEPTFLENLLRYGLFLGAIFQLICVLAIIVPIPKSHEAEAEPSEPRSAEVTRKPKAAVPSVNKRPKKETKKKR
UniProt O60307: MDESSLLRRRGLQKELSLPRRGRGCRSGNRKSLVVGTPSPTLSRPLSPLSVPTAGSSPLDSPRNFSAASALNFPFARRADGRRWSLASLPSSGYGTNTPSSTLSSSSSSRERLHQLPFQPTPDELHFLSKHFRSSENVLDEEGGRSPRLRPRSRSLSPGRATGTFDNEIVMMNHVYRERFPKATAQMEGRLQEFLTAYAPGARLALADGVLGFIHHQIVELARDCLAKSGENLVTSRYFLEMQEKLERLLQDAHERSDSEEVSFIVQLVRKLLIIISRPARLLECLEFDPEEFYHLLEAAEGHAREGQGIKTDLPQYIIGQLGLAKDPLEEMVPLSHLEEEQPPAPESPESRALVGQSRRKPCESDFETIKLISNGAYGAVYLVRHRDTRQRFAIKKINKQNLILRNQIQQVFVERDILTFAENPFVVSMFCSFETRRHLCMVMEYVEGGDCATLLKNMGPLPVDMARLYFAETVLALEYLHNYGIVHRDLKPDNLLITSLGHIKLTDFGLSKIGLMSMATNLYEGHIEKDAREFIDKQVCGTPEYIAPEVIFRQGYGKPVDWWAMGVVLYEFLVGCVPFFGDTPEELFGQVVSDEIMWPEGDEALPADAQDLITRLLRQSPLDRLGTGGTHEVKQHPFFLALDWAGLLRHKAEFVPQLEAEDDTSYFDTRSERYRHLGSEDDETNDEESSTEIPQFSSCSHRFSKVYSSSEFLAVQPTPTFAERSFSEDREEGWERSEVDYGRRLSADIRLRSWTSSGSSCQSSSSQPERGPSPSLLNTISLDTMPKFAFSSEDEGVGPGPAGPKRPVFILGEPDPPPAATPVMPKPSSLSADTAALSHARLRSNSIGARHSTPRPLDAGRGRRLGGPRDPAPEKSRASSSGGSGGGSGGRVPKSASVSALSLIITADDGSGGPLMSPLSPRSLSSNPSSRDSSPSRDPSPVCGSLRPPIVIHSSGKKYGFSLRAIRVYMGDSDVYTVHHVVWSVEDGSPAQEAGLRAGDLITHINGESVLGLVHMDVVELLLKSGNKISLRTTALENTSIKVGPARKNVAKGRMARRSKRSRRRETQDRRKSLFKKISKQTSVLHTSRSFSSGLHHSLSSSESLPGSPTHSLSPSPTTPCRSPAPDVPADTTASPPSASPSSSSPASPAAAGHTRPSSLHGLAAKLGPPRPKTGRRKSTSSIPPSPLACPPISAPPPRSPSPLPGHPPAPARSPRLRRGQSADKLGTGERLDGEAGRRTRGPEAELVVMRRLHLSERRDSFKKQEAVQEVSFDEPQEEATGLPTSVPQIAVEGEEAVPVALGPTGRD
UniProt P43357, whole entry, looked up: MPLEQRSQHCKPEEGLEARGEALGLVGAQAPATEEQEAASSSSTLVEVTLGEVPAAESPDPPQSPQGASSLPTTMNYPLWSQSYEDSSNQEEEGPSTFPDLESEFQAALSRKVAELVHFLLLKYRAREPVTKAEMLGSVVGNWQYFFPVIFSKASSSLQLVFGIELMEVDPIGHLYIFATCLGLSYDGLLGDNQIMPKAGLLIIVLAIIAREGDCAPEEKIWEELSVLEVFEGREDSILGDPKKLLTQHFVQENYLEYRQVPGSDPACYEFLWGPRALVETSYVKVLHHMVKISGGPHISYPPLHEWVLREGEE
UniProt P43356, whole entry, looked up: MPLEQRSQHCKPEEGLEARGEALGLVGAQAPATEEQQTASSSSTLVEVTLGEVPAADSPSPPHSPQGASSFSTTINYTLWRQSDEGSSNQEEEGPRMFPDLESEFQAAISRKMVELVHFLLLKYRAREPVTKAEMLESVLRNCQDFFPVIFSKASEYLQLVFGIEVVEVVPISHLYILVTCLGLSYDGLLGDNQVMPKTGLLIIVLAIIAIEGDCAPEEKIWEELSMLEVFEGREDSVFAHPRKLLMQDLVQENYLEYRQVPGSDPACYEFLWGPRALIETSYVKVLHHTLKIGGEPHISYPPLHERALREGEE
UniProt Q99683: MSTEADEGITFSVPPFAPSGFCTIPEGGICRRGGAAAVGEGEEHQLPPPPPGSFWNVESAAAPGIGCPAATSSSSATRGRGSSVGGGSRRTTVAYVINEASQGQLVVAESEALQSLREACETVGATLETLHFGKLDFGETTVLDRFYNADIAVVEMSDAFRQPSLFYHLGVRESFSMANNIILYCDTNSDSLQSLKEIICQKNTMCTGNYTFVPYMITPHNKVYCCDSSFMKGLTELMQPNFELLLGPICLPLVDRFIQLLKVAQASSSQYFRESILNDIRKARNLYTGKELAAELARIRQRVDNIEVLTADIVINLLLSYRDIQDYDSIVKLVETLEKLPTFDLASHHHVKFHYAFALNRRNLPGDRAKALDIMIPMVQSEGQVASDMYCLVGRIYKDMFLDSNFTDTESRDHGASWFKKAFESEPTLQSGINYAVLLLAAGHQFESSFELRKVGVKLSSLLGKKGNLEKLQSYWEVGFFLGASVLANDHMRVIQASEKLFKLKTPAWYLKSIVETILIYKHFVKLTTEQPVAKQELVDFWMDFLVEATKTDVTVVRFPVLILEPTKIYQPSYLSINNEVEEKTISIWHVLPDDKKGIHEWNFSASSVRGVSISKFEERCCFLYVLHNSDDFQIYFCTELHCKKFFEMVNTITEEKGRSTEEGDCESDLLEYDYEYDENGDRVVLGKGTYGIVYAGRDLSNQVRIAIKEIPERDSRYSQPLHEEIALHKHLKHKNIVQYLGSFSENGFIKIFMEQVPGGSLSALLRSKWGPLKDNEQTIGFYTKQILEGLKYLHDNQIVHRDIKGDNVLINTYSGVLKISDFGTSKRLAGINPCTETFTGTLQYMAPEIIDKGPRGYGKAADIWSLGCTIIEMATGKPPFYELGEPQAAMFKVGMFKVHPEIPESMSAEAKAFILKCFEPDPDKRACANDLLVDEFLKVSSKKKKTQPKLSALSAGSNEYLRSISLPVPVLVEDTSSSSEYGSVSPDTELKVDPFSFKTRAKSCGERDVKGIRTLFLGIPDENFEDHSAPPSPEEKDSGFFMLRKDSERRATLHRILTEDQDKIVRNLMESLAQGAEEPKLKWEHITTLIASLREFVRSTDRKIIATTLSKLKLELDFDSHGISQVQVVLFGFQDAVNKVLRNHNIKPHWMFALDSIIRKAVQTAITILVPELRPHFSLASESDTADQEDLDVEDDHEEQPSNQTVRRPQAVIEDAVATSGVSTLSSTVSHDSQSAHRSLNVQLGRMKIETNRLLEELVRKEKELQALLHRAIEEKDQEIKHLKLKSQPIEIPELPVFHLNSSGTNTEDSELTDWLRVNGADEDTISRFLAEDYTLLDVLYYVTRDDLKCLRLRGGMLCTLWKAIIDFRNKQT
UniProt Q86UD3: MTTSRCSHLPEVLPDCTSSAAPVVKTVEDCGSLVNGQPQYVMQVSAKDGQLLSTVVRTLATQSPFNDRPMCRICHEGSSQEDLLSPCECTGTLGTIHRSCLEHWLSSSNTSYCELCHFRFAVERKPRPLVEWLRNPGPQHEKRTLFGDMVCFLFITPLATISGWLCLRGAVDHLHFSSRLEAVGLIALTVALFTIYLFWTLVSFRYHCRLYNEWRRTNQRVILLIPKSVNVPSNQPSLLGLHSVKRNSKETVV
UniProt Q9UI95, whole entry, looked up: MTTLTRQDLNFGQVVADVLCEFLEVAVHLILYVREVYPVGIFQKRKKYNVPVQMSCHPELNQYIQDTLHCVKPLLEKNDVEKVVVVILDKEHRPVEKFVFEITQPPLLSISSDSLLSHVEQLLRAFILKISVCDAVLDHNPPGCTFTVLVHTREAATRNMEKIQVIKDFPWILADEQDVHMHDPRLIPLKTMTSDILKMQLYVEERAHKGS
UniProt O15525: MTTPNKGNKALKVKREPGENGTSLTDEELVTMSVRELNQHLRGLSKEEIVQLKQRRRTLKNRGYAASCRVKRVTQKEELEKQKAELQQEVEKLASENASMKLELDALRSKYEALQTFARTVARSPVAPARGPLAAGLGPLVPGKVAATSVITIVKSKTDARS
UniProt Q13233: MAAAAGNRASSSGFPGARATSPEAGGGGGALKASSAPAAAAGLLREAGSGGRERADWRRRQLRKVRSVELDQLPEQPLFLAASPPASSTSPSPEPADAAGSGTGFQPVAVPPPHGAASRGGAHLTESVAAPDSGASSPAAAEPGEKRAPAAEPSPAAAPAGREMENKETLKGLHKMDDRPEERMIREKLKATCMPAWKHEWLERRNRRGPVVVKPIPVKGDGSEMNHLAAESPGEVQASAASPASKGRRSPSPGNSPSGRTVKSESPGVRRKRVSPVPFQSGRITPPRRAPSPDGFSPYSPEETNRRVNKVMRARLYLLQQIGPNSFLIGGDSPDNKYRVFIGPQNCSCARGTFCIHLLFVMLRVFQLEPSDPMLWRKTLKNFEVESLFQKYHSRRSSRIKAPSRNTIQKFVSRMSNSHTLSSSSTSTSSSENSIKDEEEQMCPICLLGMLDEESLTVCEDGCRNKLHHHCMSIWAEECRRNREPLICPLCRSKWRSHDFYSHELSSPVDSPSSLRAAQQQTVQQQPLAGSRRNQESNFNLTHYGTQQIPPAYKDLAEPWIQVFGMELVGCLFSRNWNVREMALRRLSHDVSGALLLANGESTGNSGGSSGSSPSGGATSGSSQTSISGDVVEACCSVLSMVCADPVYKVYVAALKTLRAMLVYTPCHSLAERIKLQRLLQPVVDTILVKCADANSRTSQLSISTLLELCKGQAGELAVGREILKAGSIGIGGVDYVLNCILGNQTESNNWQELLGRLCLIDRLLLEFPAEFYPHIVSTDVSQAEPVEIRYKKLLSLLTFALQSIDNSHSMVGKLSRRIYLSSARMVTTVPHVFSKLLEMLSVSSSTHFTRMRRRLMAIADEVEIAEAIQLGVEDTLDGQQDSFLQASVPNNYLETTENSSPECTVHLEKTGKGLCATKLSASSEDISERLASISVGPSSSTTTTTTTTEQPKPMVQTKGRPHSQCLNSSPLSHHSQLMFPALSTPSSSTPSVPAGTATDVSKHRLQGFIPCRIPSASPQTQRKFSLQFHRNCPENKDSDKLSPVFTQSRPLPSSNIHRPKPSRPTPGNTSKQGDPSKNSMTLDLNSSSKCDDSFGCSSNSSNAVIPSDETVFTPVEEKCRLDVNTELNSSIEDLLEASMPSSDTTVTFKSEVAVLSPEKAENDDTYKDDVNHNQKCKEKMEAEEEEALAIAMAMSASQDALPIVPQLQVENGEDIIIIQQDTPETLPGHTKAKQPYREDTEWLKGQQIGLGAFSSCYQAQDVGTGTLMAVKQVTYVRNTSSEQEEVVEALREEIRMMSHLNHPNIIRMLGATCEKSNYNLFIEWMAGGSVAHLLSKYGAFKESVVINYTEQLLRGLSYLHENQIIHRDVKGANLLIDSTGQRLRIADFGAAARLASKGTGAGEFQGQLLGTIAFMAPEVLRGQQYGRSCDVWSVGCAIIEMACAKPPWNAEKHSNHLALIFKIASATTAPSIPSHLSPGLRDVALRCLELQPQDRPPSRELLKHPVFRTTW

The other results are listed elsewhere or left out.

Compound in this assay: c1cn2cc(-c3ccc4cn[nH]c4c3)nc(Nc3ccc(N4CCOCC4)cc3)c2n1 [entospletinib]
In words: log2 fold change, soluble protein after heating vs DMSO (PISA); higher = thermal stabilisation; K562 lysate, 10 uM; active = over 0.2 and 3.5 SD of the protein, either way, in both replicates (recomputed). Summed up:
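K562 pellets were dounce-homogenised in PBS pH 7.4 with 1 mM MgCl2, and the crude extract at 1 mg/mL protein was treated with 10 μM compound for 30 min. Aliquots were heated for 3 min across 48°C-58°C, pooled, and brought to 0.5% NP-40 at 4°C; soluble protein was the supernatant after 21,000xg for 90 min. Soluble protein was quantified by TMTpro 16plex LC-MS/MS with channel sums equalised, and reported as log2 fold change in thermal stability against DMSO controls, with values from duplicates.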
For MAN2B1 (UniProt O00754), the log2 fold change is inactive: -0.019.

With MAP4K4 isoform 3 (UniProt O95819), the log2 fold change is inactive: 0.178.

Take MANBAL (UniProt Q9NQG1): the log2 fold change was inactive: -0.01.

For the target MAST3 (UniProt O60307), the log2 fold change was inactive: -0.056.

Take MAP2K7 isoform 4 (UniProt O14733): the log2 fold change is inactive: -0.047.

With MAGEA3 (UniProt P43357), the log2 fold change was inactive: -0.09.

Take LYPLA1, A0A087X1K9: the log2 fold change was inactive: -0.365.

Take MAGEA2 (UniProt P43356): the log2 fold change is inactive: -0.06.

With MAPKAP1 (UniProt Q9BPZ7), the log2 fold change is inactive: -0.157.

For the target MARS (UniProt P56192), the log2 fold change was inactive: 0.008.

Regarding MAP3K5 (UniProt Q99683), the log2 fold change was inactive: -0.145.

As for MAGI1 isoform 6 (UniProt Q96QZ7), the log2 fold change was inactive: -0.008.

LTBP1 isoform 4 (UniProt Q14766): the log2 fold change was inactive: 0.093.

Turning to MAP3K6 (UniProt O95382), the log2 fold change is inactive: -0.043.

LTBP4 (UniProt Q8N2S1): the log2 fold change is inactive: 0.

As to MARCHF3 (UniProt Q86UD3), the log2 fold change is inactive: -0.005.

With MAGEA12 (UniProt P43365), the log2 fold change was inactive: -0.077.

For MAP4K4 isoform 6 (UniProt O95819), the log2 fold change was inactive: 0.094.

Regarding MAD2L2 (UniProt Q9UI95), the log2 fold change was inactive: 0.017.

Turning to MAFG (UniProt O15525), the log2 fold change is inactive: -0.054.

Take MARS2 (UniProt Q96GW9): the log2 fold change is inactive: 0.022.

For MAP3K1 (UniProt Q13233), the log2 fold change was inactive: -0.143.
